Results are given in words; binding and its absence hold for the method and conditions named. Binding seen in cells or lysates may run through a third protein. Some results given as binding are weak or reduced against the parent protein; the word gives no strength. Sequences can lack the tags named with a protein.

Amino acid sequences for entries named in this document (tags omitted). A change or cut given only in a name is not applied to a line headed by its entry. Chains listed by the source or under a name are the forms on record and can include a tag or linker. Residues count along the entry.
Axl receptor tyrosine kinase, wild type (P30530, residues 26-894): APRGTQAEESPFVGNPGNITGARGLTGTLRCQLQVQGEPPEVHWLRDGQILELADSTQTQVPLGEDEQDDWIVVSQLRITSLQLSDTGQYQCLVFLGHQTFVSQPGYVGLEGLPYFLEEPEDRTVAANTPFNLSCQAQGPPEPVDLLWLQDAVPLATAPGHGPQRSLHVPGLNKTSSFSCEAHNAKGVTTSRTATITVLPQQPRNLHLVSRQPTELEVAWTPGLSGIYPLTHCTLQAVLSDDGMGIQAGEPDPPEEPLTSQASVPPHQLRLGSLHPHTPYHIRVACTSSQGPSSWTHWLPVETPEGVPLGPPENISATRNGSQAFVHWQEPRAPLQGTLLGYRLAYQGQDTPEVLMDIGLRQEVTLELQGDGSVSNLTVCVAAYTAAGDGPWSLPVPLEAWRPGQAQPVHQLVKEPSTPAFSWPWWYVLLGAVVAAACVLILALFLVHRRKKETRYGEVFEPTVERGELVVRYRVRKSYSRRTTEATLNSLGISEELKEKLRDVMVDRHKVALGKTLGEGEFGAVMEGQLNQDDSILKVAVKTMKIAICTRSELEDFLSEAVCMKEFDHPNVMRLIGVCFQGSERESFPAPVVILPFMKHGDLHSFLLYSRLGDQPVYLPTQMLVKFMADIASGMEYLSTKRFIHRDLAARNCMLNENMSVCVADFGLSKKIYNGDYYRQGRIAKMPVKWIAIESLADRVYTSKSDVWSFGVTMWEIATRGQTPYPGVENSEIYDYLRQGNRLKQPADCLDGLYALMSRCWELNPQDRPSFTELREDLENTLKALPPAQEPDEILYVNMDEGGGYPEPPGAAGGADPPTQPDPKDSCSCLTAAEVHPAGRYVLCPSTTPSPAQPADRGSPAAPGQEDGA
Axl kinase-death (KD) mutant K567R (P30530, form named): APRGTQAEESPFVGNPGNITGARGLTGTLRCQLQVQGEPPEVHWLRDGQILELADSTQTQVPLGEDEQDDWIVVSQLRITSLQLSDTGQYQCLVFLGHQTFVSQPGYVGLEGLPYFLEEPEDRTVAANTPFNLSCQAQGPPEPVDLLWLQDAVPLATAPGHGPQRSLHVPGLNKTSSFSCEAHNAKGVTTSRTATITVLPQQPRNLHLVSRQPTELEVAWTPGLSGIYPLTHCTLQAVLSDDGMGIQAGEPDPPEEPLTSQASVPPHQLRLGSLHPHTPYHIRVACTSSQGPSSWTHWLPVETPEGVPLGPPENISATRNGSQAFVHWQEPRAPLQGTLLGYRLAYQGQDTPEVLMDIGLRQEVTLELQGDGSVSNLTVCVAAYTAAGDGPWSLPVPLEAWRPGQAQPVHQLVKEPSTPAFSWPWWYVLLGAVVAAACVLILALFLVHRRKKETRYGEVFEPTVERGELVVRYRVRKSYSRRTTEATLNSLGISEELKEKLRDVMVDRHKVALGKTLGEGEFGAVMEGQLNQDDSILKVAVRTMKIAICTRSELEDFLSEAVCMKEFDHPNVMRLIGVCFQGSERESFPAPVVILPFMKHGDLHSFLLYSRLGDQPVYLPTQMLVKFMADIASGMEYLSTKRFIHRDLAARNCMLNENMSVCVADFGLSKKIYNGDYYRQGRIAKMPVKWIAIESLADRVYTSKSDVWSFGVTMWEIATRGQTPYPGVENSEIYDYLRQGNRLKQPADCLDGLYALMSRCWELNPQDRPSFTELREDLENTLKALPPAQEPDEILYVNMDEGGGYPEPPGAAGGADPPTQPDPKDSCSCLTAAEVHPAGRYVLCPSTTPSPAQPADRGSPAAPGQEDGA

Results on two substances are retold here after PMC6233515.

This assay concerns the target T1, Myc-tagged wild-type human Tensin2 (human) (UniProt Q63HR2).
T1 sequence: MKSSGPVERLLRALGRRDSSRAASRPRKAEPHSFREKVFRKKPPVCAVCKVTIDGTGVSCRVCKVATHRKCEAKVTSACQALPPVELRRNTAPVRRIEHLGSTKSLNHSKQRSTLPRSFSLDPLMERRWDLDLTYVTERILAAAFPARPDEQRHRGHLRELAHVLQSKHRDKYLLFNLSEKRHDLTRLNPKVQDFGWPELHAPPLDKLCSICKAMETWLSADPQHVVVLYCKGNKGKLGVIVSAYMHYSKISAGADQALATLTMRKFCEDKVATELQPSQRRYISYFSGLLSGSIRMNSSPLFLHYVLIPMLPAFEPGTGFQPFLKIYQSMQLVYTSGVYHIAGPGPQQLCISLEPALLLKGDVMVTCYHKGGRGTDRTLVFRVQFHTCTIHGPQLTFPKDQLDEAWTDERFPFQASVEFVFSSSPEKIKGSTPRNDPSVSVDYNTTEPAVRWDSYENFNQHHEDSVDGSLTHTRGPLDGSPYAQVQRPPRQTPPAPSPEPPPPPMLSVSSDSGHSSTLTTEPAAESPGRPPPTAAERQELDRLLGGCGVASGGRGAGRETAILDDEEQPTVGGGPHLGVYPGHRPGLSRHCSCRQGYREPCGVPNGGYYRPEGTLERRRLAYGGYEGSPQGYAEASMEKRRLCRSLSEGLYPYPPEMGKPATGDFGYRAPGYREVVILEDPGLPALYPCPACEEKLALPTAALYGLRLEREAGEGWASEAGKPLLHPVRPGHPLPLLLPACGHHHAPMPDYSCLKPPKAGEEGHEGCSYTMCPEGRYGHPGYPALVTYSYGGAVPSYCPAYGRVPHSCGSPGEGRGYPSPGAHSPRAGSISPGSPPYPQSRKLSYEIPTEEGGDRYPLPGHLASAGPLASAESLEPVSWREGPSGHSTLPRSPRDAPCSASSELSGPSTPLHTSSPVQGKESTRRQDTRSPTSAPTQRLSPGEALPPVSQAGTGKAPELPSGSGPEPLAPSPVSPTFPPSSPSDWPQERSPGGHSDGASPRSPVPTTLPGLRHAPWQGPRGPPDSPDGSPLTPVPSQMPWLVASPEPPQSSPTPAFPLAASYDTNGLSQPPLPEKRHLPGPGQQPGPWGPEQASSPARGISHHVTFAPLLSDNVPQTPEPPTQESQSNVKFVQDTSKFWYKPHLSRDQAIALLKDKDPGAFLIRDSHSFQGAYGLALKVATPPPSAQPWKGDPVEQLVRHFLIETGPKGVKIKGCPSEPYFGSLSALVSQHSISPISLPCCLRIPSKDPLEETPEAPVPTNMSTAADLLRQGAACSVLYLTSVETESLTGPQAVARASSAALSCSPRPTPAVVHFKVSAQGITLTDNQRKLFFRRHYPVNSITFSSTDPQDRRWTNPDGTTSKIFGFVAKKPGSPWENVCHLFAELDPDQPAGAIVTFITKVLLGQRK
In words: co-IP; HEK293T cells transfected with Axl (wild type or mutants) and Myc-TNS2; NETN lysis buffer (150 mM NaCl, 1 mM EDTA, 20 mM Tris-Cl pH 8.0, 0.5% NP-40); reciprocal IP with anti-Myc (9E10) or anti-Axl (C-20) at 4 °C overnight, protein A/G-agarose; Western blot. Background: A western blot detects proteins with antibodies after separation by electrophoresis.

Consider “Axl kinase-death (KD) mutant K567R (from UniProt P30530 26-894) (receptor)”, for which the binding entry is given as “no binding”.

As to “Axl receptor tyrosine kinase, wild type (from UniProt P30530 26-894)”, the binding result was “binds”.
